Binding data for two substances are collected here from PMC4479000.

Sequences of proteins named here, by UniProt entry; tags and fusion partners are left off. A change or cut given only in a name is not applied to a line headed by its entry.
UniProt Q04721: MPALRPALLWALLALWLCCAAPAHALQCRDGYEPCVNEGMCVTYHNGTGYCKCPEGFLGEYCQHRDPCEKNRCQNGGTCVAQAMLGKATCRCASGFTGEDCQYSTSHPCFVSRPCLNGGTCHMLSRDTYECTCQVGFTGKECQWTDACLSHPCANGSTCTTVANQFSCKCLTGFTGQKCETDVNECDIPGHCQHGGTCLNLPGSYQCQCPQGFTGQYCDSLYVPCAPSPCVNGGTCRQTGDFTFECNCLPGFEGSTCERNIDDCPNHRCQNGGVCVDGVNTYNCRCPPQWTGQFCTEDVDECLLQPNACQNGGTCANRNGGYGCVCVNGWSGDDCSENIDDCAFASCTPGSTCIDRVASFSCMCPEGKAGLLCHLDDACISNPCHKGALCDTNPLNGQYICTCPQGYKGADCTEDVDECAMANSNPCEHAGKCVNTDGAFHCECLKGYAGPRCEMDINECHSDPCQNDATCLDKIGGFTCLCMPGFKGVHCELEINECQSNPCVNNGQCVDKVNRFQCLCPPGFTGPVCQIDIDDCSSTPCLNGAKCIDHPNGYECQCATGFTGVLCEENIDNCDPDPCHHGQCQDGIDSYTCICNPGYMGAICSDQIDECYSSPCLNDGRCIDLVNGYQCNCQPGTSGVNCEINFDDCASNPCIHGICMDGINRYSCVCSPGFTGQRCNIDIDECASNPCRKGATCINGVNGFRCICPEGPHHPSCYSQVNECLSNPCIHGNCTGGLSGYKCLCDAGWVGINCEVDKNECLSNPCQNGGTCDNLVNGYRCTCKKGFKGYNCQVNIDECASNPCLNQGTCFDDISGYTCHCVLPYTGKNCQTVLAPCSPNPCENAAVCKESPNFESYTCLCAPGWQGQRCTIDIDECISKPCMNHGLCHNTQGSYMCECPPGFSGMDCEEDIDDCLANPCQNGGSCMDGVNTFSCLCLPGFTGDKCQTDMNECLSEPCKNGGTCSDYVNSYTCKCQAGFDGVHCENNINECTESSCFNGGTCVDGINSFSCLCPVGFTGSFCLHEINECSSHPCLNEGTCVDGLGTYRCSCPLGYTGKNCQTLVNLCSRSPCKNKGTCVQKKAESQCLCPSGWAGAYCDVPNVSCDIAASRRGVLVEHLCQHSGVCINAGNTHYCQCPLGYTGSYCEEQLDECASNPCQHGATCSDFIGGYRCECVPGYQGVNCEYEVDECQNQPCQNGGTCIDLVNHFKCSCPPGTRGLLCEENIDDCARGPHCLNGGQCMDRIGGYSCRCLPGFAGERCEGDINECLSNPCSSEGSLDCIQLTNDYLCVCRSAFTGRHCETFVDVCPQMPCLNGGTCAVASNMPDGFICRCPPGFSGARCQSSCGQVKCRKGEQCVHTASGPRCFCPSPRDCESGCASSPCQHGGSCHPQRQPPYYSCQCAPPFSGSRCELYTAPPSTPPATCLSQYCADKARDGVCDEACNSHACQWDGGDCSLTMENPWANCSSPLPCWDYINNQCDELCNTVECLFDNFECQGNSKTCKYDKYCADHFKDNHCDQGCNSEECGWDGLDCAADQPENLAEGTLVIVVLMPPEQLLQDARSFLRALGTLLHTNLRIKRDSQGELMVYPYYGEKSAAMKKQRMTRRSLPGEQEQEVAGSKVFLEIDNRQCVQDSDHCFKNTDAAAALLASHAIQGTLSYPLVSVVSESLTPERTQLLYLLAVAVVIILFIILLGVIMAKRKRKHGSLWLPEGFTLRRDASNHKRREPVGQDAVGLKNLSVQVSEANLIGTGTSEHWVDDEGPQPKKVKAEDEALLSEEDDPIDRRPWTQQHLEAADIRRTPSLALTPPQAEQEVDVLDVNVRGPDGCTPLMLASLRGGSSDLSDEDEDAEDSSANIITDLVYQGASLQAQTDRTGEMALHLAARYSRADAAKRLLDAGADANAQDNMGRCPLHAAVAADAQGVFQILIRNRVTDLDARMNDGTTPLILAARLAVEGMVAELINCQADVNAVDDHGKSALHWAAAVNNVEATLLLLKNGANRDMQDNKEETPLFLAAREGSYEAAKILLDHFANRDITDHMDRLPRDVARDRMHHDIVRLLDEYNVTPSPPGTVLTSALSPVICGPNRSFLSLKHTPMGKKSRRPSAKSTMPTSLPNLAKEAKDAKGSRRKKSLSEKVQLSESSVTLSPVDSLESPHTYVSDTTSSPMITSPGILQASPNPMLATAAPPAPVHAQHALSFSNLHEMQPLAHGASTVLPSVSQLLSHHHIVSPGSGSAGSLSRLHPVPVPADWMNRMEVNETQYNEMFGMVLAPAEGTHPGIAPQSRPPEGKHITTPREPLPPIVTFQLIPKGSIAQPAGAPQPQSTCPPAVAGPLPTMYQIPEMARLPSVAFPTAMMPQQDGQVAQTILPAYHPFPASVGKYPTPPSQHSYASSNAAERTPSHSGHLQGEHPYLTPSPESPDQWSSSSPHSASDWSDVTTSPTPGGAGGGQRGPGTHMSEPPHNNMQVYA

Results are given in words; binding and its absence hold for the method and conditions named. Binding calls can cover weak binding; strength is not graded here. Tags and fused reporters may be left off the sequences shown. For some assays here: Binding seen in cells or lysates may run through a third protein.

For assay [1], the target named is T1, Gal4 DNA-binding domain (BD) fused C8orf4 (UniProt Q9NR00).
T1 sequence: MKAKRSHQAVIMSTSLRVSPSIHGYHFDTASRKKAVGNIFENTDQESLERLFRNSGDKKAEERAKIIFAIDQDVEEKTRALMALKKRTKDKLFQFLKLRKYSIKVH
Description: two-hybrid; Matchmaker Gold Yeast Two-Hybrid system; BD-C8orf4 (pGBKT7) and AD-N2ICD or AD-N2ECD (pGADT7) co-transformed into AH109; SD plate lacking adenine, histidine, tryptophan and leucine; beta-galactosidase activity.

The target in assay [2] is T2, GFP-C8orf4 (UniProt Q9NR00).
T2 sequence: T1 sequence
The assay is described as follows: co-IP; Various N2ICD truncation constructs co-transfected with GFP-C8orf4 for domain mapping.

With “Gal4-activating domain (AD) fused N2ICD (from UniProt Q04721) (domain or fragment)”, the binding entry in assay [1] is “binds”.
On to “ankyrin repeat domain of NOTCH2 (N2ICD truncation construct) (from UniProt Q04721) (domain or fragment)”, for which, in assay [2], the binding entry is “binds”.
